Test results reported in PubChem BioAssay AID2685 (National Center for Advancing Translational Sciences (NCATS), 2010).
The list shows a part of the results. Shown are side measurements of this screen, not its main read-out; they come without a call. Compounds called inactive in the main read-out are mostly missing here. Words in brackets tell the shape of the fitted curve; partial curves, single points and poor fits give uncertain potencies.

Test: qHTS Assay for Lipid Storage Modulators in Drosophila S3 Cells;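 on cell number change: cells counted by Cell Tracker Red CMTPX staining in the red channel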
Details: BODIPY lipid droplet fluorescence, 18-24 h; for cell number change: measured here: cell count max response, cells fed with added oleic acid
Summary of the method: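 Laser-scanning cytometry quantifies lipid droplet accumulation (500–530 nm total intensity; droplet/cell object ratio) in oleic acid-fed (400 uM added) Drosophila S3 cells treated with a concentration series. 20 uM Triacsin C defined 100% inhibition.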

[1] = measured here: cell number channel AC50, cells fed with added oleic acid
[2] = measured here: lipid fluorescence (Fed channel) AC50, cells fed with added oleic acid

| Structure (SMILES) | AC50 [1] | AC50 [2] | cell number change [%] |
| --- | --- | --- | --- |
| CC(C)c1nc(SCC(=O)N2c3ccccc3CC2C)c2ccccc2n1 (stereo unspecified) | 0.517 µM [rising, full curve] | 0.82 µM [rising, full curve] |  |
| CCCCCOC(=O)C(C)c1c(C)[nH]c(=S)[nH]c1=O (stereo unspecified) |  |  | 2.48 |
| COc1ccc(-c2nn(-c3ccccc3)cc2C(=O)NC2CCC(C)CC2)cc1 (stereo unspecified) | 0.731 µM [falling, single point] |  | -14.9 |
| COc1cccc(C(=O)Nc2nnc(SCC(=O)Nc3ccc(NC(C)=O)cc3)s2)c1 |  |  | -7.78 |
| COC(=O)c1ccc2c(=O)n(CCN3CCOCC3)c(SCC(=O)Nc3cccc(OC)c3)nc2c1 |  |  | 3.05 |
| CCC1(c2ccc(F)cc2)NC(=O)N(CC(=O)N2c3ccccc3NC(=O)CC2C)C1=O (stereo unspecified) | 29.1 µM [falling, single point] | 2.06 µM [rising, full curve] | -53.2 |
| CCOC(=O)c1cnc2c(ccc3ccccc32)c1Cl |  | 29.1 µM [rising, partial curve, poor fit] | 16.9 |
| Cc1ccc(-c2cc(C)nc3nc(N)nn23)cc1 |  | 1.84 µM [rising, partial curve] | 1.89 |
| O=C(O)CCCC(=O)NCCCc1ccccc1 |  |  | 16.1 |
| Cc1ccccc1NC(=O)c1c(O)c2cccc3c2n(c1=O)CC3 | 0.326 µM [rising, full curve] | 1.84 µM [rising, partial curve] |  |
| CSc1ncc(C(=O)NCCCc2ccccc2)c(C)n1 |  |  | 22.5 |
| COC(=O)c1c(C)[nH]c(C(=O)CSc2ncnc3sc(-c4ccccc4)cc23)c1C |  | 8.2 µM [falling, partial curve, poor fit] | -36.9 |
| COc1ccc(OC)c(NC(=O)CC2C(=O)NCCN2C(=O)Nc2cccc(Cl)c2)c1 (stereo unspecified) |  |  | -12 |
| CNc1ccc(/C=C/C(=O)c2ccc(C)cc2)cc1[N+](=O)[O-] |  | 29.1 µM [falling, single point] | -20 |
| CN(NS(=O)(=O)c1ccc(Cl)cc1)c1ncc(C(F)(F)F)cc1Cl |  | 29.1 µM [rising, single point] | -18 |
| O=C(CCN1C(=O)C2CC=CCC2C1=O)Nc1ccc(S(=O)(=O)N2CCCCC2)cc1 (stereo unspecified) |  |  | 7.23 |
| CCOC(=O)N1CCN(C(=O)c2cc(-n3cnnc3)ccc2Cl)CC1 |  | 0.92 µM [falling, full curve, poor fit] | -11.2 |
| Cc1c(Cl)c(=O)oc2cc(OCC(=O)NCc3cccs3)ccc12 |  | 32.6 µM [rising, single point] | 9.11 |
| COc1ccccc1/C=C1\SC(=S)N(C(C(=O)O)c2ccccc2)C1=O (stereo unspecified) |  |  | 19.9 |

| Structure (SMILES) | AC50 [1] | AC50 [2] | cell number change [%] |
| --- | --- | --- | --- |
| O=C1NC(C(F)(F)F)(C(F)(F)F)N=C2SC=CN12 |  | 4.11 µM [rising, single point] | 16.4 |
| CCCCn1c(=O)[nH]c(=O)c2c1nc(-c1ccc3ccccc3c1)n2CC | 6.51 µM [rising, single point] | 6.51 µM [rising, partial curve] |  |
| Cc1cc(Nc2ccccc2)n(CCC#N)n1 |  |  | 6.8 |
| COc1ccc2oc(C(=O)OCC(=O)Nc3ccc(OC)c(S(N)(=O)=O)c3)c(C)c2c1 | 29.1 µM [rising, single point] |  | 49.5 |
| CCOC(=O)CN1CC23C=CC(O2)C(C(=O)NCc2ccccc2OC)C3C1=O (stereo unspecified) | 0.146 µM [falling, full curve, poor fit] | 9.2 µM [falling, partial curve] | -53.6 |
| CC(C)(C)c1ccc(C(=O)Nc2ccc(O)c3c(=O)cc(-c4ccccc4Cl)oc23)cc1 | 1.84 µM [falling, single point] | 1.84 µM [falling, full curve] | -16.3 |
| O=C(NCc1nnc(SCc2ccccc2)n1-c1ccc(F)cc1)C12CC3CC(CC(C3)C1)C2 | 20.6 µM [falling, single point] | 29.1 µM [falling, single point] | -50.1 |
| CCCc1cc(C(=O)NC(C)C2CCCO2)cs1 (stereo unspecified) |  | 1.64 µM [falling, partial curve, poor fit] | 6.8 |
| COc1ccc(-n2nc(C(=O)NCC(=O)Nc3cc(OC)c(OC)c(OC)c3)c3ccccc3c2=O)cc1OC |  | 29.1 µM [falling, single point] | -27 |
| CCN(CC)S(=O)(=O)c1cc(NC(=O)c2cccc(N3C(=O)CCC3=O)c2)ccc1Cl |  |  | 10.8 |
| COc1ccc(CCNC(=O)CCc2ccc(S(=O)(=O)NC(C)C)cc2)cc1 | 14.6 µM [rising, partial curve] | 29.1 µM [rising, single point] | 34.2 |
| CCN(CC)c1ccc(S(=O)(=O)Nc2cc(Cl)ccc2Cl)cc1NC(=S)NC(=O)C1CCCC1 | 29.1 µM [rising, single point] | 0.326 µM [falling, full curve] | 38.9 |
| CCC(NC(=S)NC1CCCCC1)c1ccccc1 (stereo unspecified) |  | 7.31 µM [rising, single point] | 20.9 |
| Cc1ccc2[nH]c(C)c(CCNC(=O)NC3CCCCC3)c2c1 |  |  | -9.79 |
| CCN1C(=O)[C@H]2[C@@H](c3ccc(C)cc3)N3C(=O)N(c4cccc(F)c4)C(=O)[C@@]3(Cc3ccc(Cl)cc3)[C@H]2C1=O |  | 20.6 µM [rising, single point] |  |
| Cc1ccc(Cl)cc1NC(=S)N(CCCN1CCOCC1)Cc1ccccn1 |  | 4.11 µM [falling, full curve, poor fit] | -23.8 |
| CCN(CC)CCOc1ccc2c(c1)C(=NNC(=O)c1ccccn1)c1cc(OCCN(CC)CC)ccc1-2 | 29.1 µM [falling, single point] | 20.6 µM [falling, partial curve] | -60.2 |
| COc1cc(SC)ccc1C(=O)NC1CCCc2ccccc21 (stereo unspecified) |  | 29.1 µM [falling, single point] | 11.5 |
| O=C(COC(=O)C1CCN(c2ccc(C(F)(F)F)cn2)CC1)Nc1ncc(Cl)cc1Cl |  | 0.092 µM [rising, full curve, poor fit] | -7.37 |

Entries of single compounds as entered above:
`CCN(CC)c1ccc(S(=O)(=O)Nc2cc(Cl)ccc2Cl)cc1NC(=S)NC(=O)C1CCCC1` as listed: AC50 [1]: 29.1 µM [rising, single point]; AC50 [2]: 0.326 µM [falling, full curve]; cell number change [%]: 38.9
`CCN(CC)S(=O)(=O)c1cc(NC(=O)c2cccc(N3C(=O)CCC3=O)c2)ccc1Cl` as listed: cell number change [%]: 10.8
